Experiment [1] has as its target T1, GFP-mUsp27xS (murine Usp27xS, 438 aa) (mouse) (UniProt Q8CEG8).
T1 sequence: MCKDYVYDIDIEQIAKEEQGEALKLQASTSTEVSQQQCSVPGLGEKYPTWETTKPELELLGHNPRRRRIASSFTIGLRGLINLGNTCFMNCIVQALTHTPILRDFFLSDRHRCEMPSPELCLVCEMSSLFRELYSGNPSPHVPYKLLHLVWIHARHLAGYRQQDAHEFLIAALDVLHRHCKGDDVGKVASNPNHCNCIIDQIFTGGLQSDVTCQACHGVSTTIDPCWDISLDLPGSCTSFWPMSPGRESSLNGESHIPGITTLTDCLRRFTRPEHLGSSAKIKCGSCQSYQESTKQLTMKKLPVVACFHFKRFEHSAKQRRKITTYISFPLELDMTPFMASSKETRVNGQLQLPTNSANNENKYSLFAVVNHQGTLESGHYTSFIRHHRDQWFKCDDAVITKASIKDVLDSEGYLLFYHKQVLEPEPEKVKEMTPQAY
Kind of experiment: co-IP; GFP-IP from 1205Lu cells overexpressing GFP-mUsp27xS; data not shown.

By UniProt entry, the sequences of proteins in these tests, tags left out.
UniProt Q14790: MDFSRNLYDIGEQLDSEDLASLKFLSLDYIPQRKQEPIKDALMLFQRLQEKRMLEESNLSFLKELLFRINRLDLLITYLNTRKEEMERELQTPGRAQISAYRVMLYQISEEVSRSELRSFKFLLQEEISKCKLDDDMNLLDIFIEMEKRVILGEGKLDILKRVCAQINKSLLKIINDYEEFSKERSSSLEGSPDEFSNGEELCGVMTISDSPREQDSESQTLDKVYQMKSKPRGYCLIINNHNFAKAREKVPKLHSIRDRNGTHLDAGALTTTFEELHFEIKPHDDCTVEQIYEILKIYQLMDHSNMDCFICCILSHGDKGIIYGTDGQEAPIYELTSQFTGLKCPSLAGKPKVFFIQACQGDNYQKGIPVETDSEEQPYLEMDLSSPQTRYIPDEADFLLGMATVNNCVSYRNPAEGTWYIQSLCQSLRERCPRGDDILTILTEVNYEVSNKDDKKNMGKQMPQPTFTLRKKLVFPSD
UniProt Q13546: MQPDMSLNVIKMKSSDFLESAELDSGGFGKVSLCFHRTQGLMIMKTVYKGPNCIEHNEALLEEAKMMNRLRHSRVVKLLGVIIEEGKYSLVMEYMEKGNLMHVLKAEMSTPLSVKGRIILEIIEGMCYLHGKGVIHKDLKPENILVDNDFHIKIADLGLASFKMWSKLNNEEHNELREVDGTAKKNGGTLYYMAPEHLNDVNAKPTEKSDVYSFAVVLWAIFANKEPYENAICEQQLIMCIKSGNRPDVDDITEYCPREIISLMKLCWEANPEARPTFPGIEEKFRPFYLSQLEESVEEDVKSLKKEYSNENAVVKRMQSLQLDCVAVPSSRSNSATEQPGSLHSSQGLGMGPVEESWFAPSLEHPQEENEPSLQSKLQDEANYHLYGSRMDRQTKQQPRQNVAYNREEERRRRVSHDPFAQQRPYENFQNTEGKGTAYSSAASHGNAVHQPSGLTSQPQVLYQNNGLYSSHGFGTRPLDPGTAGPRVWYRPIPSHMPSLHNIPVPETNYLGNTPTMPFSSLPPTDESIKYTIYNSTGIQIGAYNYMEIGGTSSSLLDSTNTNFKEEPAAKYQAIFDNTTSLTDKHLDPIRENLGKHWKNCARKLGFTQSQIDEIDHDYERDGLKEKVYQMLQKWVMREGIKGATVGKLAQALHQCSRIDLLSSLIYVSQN
UniProt Q13263: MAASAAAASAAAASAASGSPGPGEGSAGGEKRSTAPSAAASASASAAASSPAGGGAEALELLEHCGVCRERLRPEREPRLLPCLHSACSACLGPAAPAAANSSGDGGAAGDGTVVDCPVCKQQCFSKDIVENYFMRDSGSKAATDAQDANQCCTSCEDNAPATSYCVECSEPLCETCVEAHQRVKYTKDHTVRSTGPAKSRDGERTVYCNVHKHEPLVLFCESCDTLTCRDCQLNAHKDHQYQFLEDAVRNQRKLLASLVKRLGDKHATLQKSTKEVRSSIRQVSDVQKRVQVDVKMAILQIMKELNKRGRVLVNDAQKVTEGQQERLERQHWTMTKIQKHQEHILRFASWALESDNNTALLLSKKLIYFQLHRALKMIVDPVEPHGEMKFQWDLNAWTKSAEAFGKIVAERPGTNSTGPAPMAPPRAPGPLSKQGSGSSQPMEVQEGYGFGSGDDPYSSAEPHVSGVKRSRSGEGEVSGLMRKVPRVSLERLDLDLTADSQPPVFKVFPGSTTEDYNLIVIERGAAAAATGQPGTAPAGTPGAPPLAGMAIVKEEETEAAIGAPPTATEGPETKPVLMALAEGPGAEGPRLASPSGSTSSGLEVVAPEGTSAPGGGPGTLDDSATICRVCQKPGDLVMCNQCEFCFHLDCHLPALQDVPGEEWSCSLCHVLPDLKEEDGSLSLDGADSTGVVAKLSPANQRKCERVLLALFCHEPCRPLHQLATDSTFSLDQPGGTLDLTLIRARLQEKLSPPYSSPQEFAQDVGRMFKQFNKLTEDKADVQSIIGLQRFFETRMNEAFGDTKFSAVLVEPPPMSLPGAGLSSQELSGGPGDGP

Experiment [2] addresses T2, 3xFlag-mUsp27xS (murine Usp27xS, 438 aa) (mouse) (UniProt Q8CEG8).
T2 sequence: T1 sequence
Put plainly: co-IP; 293FT cells inducibly expressing hUsp27xL or mUsp27xS, stimulated with PMA; DISC lysis buffer; Supplementary Fig. S1A (legend not shown).

The target in experiment [3] is pro-caspase-8 (human (endogenous in WM1158)) (UniProt Q14790). Put plainly: co-IP; caspase-8 p18 antibody on protein G agarose; WM1158 TetR-GFP-hUsp27xL cells, 24 h or 48 h doxycycline, with or without TNF; DISC lysis buffer, 4 h at 4 °C; Western blot (Fig. 5B). Background: Immunoblotting shows a protein as a band on a membrane.

Drawing on PMC8863773, this text covers binding for 2 substances.

No constants are given. Whether binding was seen depends on the method and setting. In cells and extracts the contact can be indirect. Some entries that bind do so weakly or less than the wild type. For part of these data: Where a sequence is shown, tags or fusion partners need not be part of it.

As for RIPK1 (from UniProt Q13546 1-671), the binding result in experiment [1] and in experiment [2] was “binds” in each case.

In the case of “TRIM28 (from UniProt Q13263 1-835) (enzyme)”, in experiment [3], the binding result is recorded as “binds”.
